Measurements reported in PubChem BioAssay AID1671195 (Yale University, 2021).
This is a random part of about 22,000 reagents tested. About 1,510 of them (6.9%) were called active. 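Active includes knockdowns raising or lowering LDL uptake; positive z-scores mean more uptake, negative mean less.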

- Purpose: 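Knockdowns that increase or decrease uptake of fluorescent LDL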 (primary screen)
- Cell system: human Huh7 hepatoma cells
- Reagent: siRNA pool against human genes, 18 nM
- Time to read-out: about 2 to 2.5 days of knockdown, then 8 h LDL uptake
- Treatment: DiI-labelled LDL at 30 µg/ml for 8 h, in lipoprotein-deficient serum medium
- Detection: 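Per-cell DiI-LDL intensity by automated imaging; well means scaled to the plate median and given as a robust z-score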
- Direction: robust z-score: higher = more LDL uptake after knockdown
- Rule for the call: 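Active when two or more replicates show a robust z-score above 2 or below -2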

The first 2 entries, to show the layout:
{"gene": "LOC442099 (retired record) (GeneID 442099)", "PubChem SID": "SID442899076", "robust z-score, replicate 1": -0.359, "robust z-score, replicate 2": -0.665, "robust z-score, replicate 3": -0.697, "Call": "inactive"}
{"gene": "CPEB1 (GeneID 64506)", "PubChem SID": "SID442903555", "robust z-score, replicate 1": -0.94, "robust z-score, replicate 2": -1.5, "robust z-score, replicate 3": -1.53, "Call": "inactive"}

The listing, from the start:
{"gene": "LOC442099 (retired record) (GeneID 442099)", "PubChem SID": "SID442899076", "robust z-score, replicate 1": -0.359, "robust z-score, replicate 2": -0.665, "robust z-score, replicate 3": -0.697, "Call": "inactive"}
{"gene": "CPEB1 (GeneID 64506)", "PubChem SID": "SID442903555", "robust z-score, replicate 1": -0.94, "robust z-score, replicate 2": -1.5, "robust z-score, replicate 3": -1.53, "Call": "inactive"}
{"gene": "LOC441337 (retired record) (GeneID 441337)", "PubChem SID": "SID442884637", "robust z-score, replicate 1": 2.55, "robust z-score, replicate 2": 1.97, "robust z-score, replicate 3": 1.76, "Call": "inactive"}
{"gene": "GJA5 (GeneID 2702)", "PubChem SID": "SID442894362", "robust z-score, replicate 1": 0.506, "robust z-score, replicate 2": -0.553, "robust z-score, replicate 3": -0.12, "Call": "inactive"}
{"gene": "LOC440444 (retired record) (GeneID 440444)", "PubChem SID": "SID442896843", "robust z-score, replicate 1": -0.443, "robust z-score, replicate 2": -0.149, "robust z-score, replicate 3": -0.366, "Call": "inactive"}
{"gene": "FCHSD2 (GeneID 9873)", "PubChem SID": "SID442890525", "robust z-score, replicate 1": -1.1, "robust z-score, replicate 2": 1.38, "robust z-score, replicate 3": 0.94, "Call": "inactive"}
{"gene": "PCDHA8 (GeneID 56140)", "PubChem SID": "SID442884828", "robust z-score, replicate 1": 1.85, "robust z-score, replicate 2": 2.07, "robust z-score, replicate 3": 1.62, "Call": "inactive"}
{"gene": "LOC442200 (retired record) (GeneID 442200)", "PubChem SID": "SID442890811", "robust z-score, replicate 1": 0.824, "robust z-score, replicate 2": -0.0876, "robust z-score, replicate 3": 0.362, "Call": "inactive"}
{"gene": "PAGE5 (GeneID 90737)", "PubChem SID": "SID442902858", "robust z-score, replicate 1": -1.5, "robust z-score, replicate 2": -0.791, "robust z-score, replicate 3": -1.19, "Call": "inactive"}
{"gene": "DEFB135 (GeneID 613209)", "PubChem SID": "SID442899515", "robust z-score, replicate 1": -0.201, "robust z-score, replicate 2": -0.937, "robust z-score, replicate 3": -0.754, "Call": "inactive"}
{"gene": "B3GAT3P1 (GeneID 402146)", "PubChem SID": "SID442894704", "robust z-score, replicate 1": -0.281, "robust z-score, replicate 2": 0.428, "robust z-score, replicate 3": -0.423, "Call": "inactive"}
{"gene": "LOC440959 (retired record) (GeneID 440959)", "PubChem SID": "SID442898226", "robust z-score, replicate 1": -0.287, "robust z-score, replicate 2": -0.402, "robust z-score, replicate 3": -0.736, "Call": "inactive"}
{"gene": "ZER1 (GeneID 10444)", "PubChem SID": "SID442896450", "robust z-score, replicate 1": -0.97, "robust z-score, replicate 2": 1.28, "robust z-score, replicate 3": -1.13, "Call": "inactive"}
{"gene": "FGF16 (GeneID 8823)", "PubChem SID": "SID442884563", "robust z-score, replicate 1": -2.47, "robust z-score, replicate 2": -2.3, "robust z-score, replicate 3": -2.79, "Call": "active"}
{"gene": "IDH3A (GeneID 3419)", "PubChem SID": "SID442895911", "robust z-score, replicate 1": -0.0737, "robust z-score, replicate 2": -0.367, "robust z-score, replicate 3": -0.216, "Call": "inactive"}
{"gene": "QTRT2 (GeneID 79691)", "PubChem SID": "SID442896653", "robust z-score, replicate 1": -0.528, "robust z-score, replicate 2": -0.653, "robust z-score, replicate 3": 0.29, "Call": "inactive"}
{"gene": "EPCIP-AS1 (GeneID 54067)", "PubChem SID": "SID442887915", "robust z-score, replicate 1": 0.94, "robust z-score, replicate 2": 0.763, "robust z-score, replicate 3": 0.748, "Call": "inactive"}
{"gene": "BDH2P1 (GeneID 389416)", "PubChem SID": "SID442895086", "robust z-score, replicate 1": 0.229, "robust z-score, replicate 2": -0.295, "robust z-score, replicate 3": -0.329, "Call": "inactive"}
{"gene": "PARD6B (GeneID 84612)", "PubChem SID": "SID442886815", "robust z-score, replicate 1": 0.846, "robust z-score, replicate 2": 1.28, "robust z-score, replicate 3": 1.05, "Call": "inactive"}
{"gene": "TLK2 (GeneID 11011)", "PubChem SID": "SID442894491", "robust z-score, replicate 1": 0.105, "robust z-score, replicate 2": -0.419, "robust z-score, replicate 3": 0.107, "Call": "inactive"}
{"gene": "ABHD5 (GeneID 51099)", "PubChem SID": "SID442889134", "robust z-score, replicate 1": 1.2, "robust z-score, replicate 2": 0.13, "robust z-score, replicate 3": 0.487, "Call": "inactive"}
{"gene": "MID1 (GeneID 4281)", "PubChem SID": "SID442903161", "robust z-score, replicate 1": -0.094, "robust z-score, replicate 2": -1.75, "robust z-score, replicate 3": -1.85, "Call": "inactive"}
{"gene": "MAPRE3 (GeneID 22924)", "PubChem SID": "SID442900555", "robust z-score, replicate 1": -1.2, "robust z-score, replicate 2": -0.614, "robust z-score, replicate 3": -0.51, "Call": "inactive"}
{"gene": "ZNF77 (GeneID 58492)", "PubChem SID": "SID442902461", "robust z-score, replicate 1": -1.2, "robust z-score, replicate 2": -1.27, "robust z-score, replicate 3": -0.767, "Call": "inactive"}
{"gene": "SLC37A2 (GeneID 219855)", "PubChem SID": "SID442902604", "robust z-score, replicate 1": -1.16, "robust z-score, replicate 2": -1.09, "robust z-score, replicate 3": -1.09, "Call": "inactive"}
{"gene": "KCNH7 (GeneID 90134)", "PubChem SID": "SID442883656", "robust z-score, replicate 1": 2.58, "robust z-score, replicate 2": 2.14, "robust z-score, replicate 3": 2.79, "Call": "active"}
{"gene": "MID2 (GeneID 11043)", "PubChem SID": "SID442895068", "robust z-score, replicate 1": 0.584, "robust z-score, replicate 2": -0.62, "robust z-score, replicate 3": -0.353, "Call": "inactive"}
{"gene": "FAM182A (GeneID 284800)", "PubChem SID": "SID442902364", "robust z-score, replicate 1": -1.24, "robust z-score, replicate 2": -1.11, "robust z-score, replicate 3": -0.829, "Call": "inactive"}
{"gene": "CCL3 (GeneID 6348)", "PubChem SID": "SID442886776", "robust z-score, replicate 1": 1.69, "robust z-score, replicate 2": 1.25, "robust z-score, replicate 3": 0.26, "Call": "inactive"}
{"gene": "RAC2 (GeneID 5880)", "PubChem SID": "SID442884197", "robust z-score, replicate 1": 2.1, "robust z-score, replicate 2": 2.02, "robust z-score, replicate 3": 1.08, "Call": "active"}
